No constants are given. Whether binding was seen depends on the method and setting. Some results given as binding are weak or reduced against the parent protein; the word gives no strength.
Biological target: N-terminally arginylated calreticulin (human (endogenous in DLD-1)) (UniProt P27797)
Assay: non-reducing SDS-PAGE with western blot

B1: N-terminally arginylated calreticulin (natural protein, human (endogenous in DLD-1), UniProt P27797 18-417, looked up)
chain: REPAVYFKEQFLDGDGWTSRWIESKHKSDFGKFVLSSGKFYGDEEKDKGLQTSQDARFYALSASFEPFSNKGQTLVVQFTVKHEQNIDCGGGYVKLFPNSLDQTDMHGDSEYNIMFGPDICGPGTKKVHVIFNYKGKNVLINKDIRCKDDEFTHLYTLIVRPDNTYEVKIDNSQVESGSLEDDWDFLPPKKIKDPDASKPEDWDERAKIDDPTDSKPEDWDKPEHIPDPDAKKPEDWDEEMDGEWEPPVIQNPEYKGEWKPRQIDNPDYKGTWIHPEIDNPEYSPDPSIYAYDNFGVLGLDLWQVKSGTIFDNFLITNDEAYAEEFGNETWGVTKAAEKQMKDKQDEEQRLKEEEEDKKRKEEEEAEDKEDDEDKDEDEEDEEDKEEDEEEDVPGQAKDEL
modifications: arginyl group added at the mature (signal sequence removed) NH2-terminus, Glu-18
With B1 the binding was “binds”.
